Results reported in article PMC8274477.
Results are given in words; binding and its absence hold for the method and conditions named. Some entries that bind do so weakly or less than the wild type.

Chains of the proteins cited; added tags and fusions are not shown.
UniProt Q8NA03: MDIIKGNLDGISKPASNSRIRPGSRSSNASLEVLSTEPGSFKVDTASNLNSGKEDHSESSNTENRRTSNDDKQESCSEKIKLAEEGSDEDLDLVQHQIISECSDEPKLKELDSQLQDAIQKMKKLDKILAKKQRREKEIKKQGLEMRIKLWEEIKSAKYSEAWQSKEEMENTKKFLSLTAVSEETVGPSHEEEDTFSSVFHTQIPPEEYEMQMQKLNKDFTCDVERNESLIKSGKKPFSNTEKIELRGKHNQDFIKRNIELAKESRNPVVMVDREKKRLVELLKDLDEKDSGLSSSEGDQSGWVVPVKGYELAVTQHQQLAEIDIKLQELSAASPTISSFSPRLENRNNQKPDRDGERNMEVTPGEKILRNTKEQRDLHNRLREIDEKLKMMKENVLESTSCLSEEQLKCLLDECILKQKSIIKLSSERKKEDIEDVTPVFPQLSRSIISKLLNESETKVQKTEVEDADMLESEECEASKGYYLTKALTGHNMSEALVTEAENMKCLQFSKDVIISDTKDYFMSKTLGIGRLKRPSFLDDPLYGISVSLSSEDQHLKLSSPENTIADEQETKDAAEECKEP
UniProt P0CG20: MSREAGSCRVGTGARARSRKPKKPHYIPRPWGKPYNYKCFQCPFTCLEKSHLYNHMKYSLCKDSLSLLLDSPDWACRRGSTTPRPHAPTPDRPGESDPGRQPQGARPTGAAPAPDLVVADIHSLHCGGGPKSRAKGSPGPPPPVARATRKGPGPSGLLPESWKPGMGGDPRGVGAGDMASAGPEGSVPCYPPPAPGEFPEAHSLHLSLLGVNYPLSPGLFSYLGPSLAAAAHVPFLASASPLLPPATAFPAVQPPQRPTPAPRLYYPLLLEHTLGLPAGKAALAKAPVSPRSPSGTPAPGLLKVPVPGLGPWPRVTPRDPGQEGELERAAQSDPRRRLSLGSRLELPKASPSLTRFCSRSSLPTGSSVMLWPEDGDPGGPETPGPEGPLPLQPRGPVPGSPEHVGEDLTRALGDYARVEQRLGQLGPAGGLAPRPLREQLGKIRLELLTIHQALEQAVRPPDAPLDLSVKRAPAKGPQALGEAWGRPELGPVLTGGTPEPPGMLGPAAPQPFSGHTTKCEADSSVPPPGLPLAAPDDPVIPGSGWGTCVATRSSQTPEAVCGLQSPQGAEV
UniProt Q96LT6: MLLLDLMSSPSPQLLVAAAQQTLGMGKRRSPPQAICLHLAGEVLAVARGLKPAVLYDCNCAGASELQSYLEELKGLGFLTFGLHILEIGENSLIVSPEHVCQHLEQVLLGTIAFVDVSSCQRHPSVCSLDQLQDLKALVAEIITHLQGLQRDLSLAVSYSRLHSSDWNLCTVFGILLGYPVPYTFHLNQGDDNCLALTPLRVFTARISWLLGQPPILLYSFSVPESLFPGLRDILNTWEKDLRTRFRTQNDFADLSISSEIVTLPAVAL
UniProt P28482: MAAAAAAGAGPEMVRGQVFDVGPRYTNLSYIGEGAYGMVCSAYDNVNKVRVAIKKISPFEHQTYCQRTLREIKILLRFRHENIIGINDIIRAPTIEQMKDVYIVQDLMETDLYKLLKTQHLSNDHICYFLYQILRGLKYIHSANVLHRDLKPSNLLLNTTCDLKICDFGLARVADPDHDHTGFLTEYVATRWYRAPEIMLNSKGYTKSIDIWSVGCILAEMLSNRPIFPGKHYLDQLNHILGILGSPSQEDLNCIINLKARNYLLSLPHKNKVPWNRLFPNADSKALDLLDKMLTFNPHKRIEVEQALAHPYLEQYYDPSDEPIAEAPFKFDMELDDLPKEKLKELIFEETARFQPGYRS

Tests used:
Assay in all cases: peptide or protein array; HuProt human proteome microarray; 5 ug/5 ml biotin-labelled LUBAC or OTULIN in solution, 1 h at room temperature; Cy5-streptavidin, scanned at 635 nm; BSA as negative control; hits: Z-score >= 3 and I_(Mean_Ratio) >= 1.4; both purified
CDCA3 (human) = target: T1, CDCA3 (human) (UniProt Q99618)
T1 sequence: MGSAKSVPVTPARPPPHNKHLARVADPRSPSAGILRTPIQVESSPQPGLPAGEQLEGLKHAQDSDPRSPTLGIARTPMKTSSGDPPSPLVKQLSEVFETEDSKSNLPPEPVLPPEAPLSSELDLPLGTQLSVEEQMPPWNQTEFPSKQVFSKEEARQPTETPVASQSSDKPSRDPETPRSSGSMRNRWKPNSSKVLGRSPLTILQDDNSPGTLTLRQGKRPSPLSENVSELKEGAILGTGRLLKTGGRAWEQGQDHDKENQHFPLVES

NAT6 (human) = target: T2, NAT6 (human) (UniProt Q93015)
T2 sequence: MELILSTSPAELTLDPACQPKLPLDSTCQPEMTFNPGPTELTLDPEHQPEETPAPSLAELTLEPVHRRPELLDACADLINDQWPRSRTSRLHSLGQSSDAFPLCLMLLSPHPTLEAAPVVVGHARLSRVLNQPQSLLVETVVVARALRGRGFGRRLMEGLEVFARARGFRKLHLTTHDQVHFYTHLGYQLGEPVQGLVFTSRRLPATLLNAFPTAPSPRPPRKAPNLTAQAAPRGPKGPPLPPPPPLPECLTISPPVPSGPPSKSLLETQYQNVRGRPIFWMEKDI

FSIP1 (human) = FSIP1 (human) (UniProt Q8NA03)
FAM120B (human) = target: T3, FAM120B (human) (UniProt Q96EK7)
T3 sequence: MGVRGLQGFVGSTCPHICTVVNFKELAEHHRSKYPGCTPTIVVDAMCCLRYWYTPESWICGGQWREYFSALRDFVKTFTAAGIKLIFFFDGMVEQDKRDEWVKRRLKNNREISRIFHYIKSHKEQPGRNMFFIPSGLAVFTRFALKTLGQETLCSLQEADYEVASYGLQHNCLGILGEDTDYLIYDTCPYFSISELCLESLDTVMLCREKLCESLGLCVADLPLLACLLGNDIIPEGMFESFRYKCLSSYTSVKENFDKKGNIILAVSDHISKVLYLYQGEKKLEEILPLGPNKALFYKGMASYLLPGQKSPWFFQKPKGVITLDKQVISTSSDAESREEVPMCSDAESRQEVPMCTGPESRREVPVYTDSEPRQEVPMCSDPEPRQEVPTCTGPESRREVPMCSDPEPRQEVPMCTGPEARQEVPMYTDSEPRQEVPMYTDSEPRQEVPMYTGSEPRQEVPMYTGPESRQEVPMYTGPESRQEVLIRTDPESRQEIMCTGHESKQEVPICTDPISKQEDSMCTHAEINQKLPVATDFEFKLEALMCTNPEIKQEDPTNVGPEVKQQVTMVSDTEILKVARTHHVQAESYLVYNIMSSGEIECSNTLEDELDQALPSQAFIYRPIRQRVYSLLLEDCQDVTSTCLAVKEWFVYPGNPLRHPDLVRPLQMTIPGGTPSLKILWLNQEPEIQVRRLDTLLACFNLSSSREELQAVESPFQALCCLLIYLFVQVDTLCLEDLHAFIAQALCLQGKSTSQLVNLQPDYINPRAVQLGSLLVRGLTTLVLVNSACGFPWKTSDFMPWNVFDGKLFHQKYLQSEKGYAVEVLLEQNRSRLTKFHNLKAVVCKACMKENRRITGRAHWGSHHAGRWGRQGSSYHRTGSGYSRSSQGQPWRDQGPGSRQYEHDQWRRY

PRR35 (human) = PRR35 (human) (UniProt P0CG20)
C1orf74 (human) = C1orf74 (human) (UniProt Q96LT6)
MAPK1 (human) = MAPK1 (human) (UniProt P28482)
RBMS1 (human) = target: T4, RBMS1 (human) (UniProt P29558)
T4 sequence: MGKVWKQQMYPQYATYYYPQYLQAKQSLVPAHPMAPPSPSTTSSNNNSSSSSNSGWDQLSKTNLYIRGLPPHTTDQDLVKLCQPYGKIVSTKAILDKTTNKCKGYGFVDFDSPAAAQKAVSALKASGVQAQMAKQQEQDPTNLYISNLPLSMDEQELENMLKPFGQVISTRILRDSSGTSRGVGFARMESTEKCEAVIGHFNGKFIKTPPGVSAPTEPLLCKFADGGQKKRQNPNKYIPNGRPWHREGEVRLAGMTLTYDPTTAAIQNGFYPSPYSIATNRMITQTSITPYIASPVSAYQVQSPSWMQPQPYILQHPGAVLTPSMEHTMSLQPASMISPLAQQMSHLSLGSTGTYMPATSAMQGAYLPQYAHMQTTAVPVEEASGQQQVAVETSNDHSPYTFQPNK

binding (CDCA3 (human)): binds
binding (NAT6 (human)): binds
binding (FSIP1 (human)): binds
binding (FAM120B (human)): binds
binding (PRR35 (human)): binds
binding (C1orf74 (human)): binds
binding (MAPK1 (human)): binds
binding (RBMS1 (human)): binds
Substance: linear ubiquitin chain assembly complex (LUBAC), purified as HIS-tagged HOIP with the subunit HOIL-1, biotin-labelled (from UniProt Q96EP0 1-1072; Q9BYM8 1-510)
